Five molecules from article doi:10.1101/2021.07.23.453513 can be followed below.

Chains of the proteins cited; added tags and fusions are not shown.
UniProt Q9CQW9: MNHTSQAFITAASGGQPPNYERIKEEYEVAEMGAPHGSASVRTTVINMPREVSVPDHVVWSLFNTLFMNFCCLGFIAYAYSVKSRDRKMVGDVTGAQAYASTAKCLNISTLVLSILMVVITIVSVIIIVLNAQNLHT
UniProt Q60870: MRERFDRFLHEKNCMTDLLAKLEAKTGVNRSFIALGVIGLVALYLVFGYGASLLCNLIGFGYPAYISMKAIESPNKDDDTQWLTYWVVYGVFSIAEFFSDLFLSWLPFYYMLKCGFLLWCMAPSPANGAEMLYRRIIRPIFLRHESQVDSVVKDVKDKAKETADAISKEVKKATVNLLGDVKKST

The assay addresses Interferon induced transmembrane protein 3 (Ifitm3) (mouse (endogenous in BM-DCs)) (UniProt Q9CQW9). The experiment in a line: affinity purification with mass spectrometry.

These are yes or no findings as the source states them, for the method shown. Binding seen in cells or lysates may run through a third protein. Here binding means that the protein was enriched with, or labelled near, the bait; the list need not be complete.

On to “receptor enhancing expression protein 5 (Reep5) (from UniProt Q60870 1-185)”, for which the binding result was “binds”.

B1: Ifitm1 (protein, UniProt Q9D103 1-106)
chain: MPKEQQEVVVLGSPHISTSATATTINMPEISTPDHVVWSLFNTLFMNFCCLGFVAYAYSVKSRDRKMVGDTTGAQAFASTAKCLNISSLFFTILTAIVVIVVCAIR
As to B1, the binding result was “binds”.

B2: Rtn3 (reticulon family) (protein, UniProt Q9ES97 1-964)
chain: MAESSAATQSPSVSSSSSGAEPSALGGGGGSPGACPALGAKSCGSSCADSFVSSSSSQPVSIFSTSQAGLSSLCSDEPPSKSMTSSFLSSSEIHNPDPTTPLGEKSETLGSQFVLAKGKDPLVLLDKKKLDSPQGTNKDRVDAPVSLATGIPCSHPSIPDSFPEQPAFLSKEIGPAEEWVVKDQEPKNPNKVPDGEDRSALDFGQSKAEHICTYSLSPSELPVASVEKDSPESPFEVIIDKATFDREFKDLYKENPNDLGGWAAHGDRESPADLLEMNDKLFPLRNKEAGRYPSSVLLGRQFSHTTAALEEVSRCVNDMHNFTNEILTWDLDPQAKQQANKTSCTTESTGLDRSELRSEIPVINLKTNPQQKMPVCSFNGSTPITKSTGDWTEAFTEGKPVRDYLSSTKEAGGNGVPGSSQLHSELPGSMPEKWVSGSGAATVEVTLPNLRGAWPNSVMGEVTEVDSSGESDDTVIEDITEKPDSLPSAAAKTSEREIKETPSRETVRSEMCENSEQPQAQPETPTQKSLEGEVASQVPNTLNEVTPEKLDMTNNPKVCSAAPPSVLNETGFSLTVPASAKLESLLGKYVEDTDGSSPEDLMAVLTGAEEKGIVDKEEGDVLEAVLEKIADFKNTLPVELLHESELSGSETKNIKSKYSEDSRETTGGAPTMSPDLEQEQLTIRAIKELGERQAEKVQDEGISSGGKLKQTFAPQSGPQSSSDILEHTDVKTGSDLGIPKNPTIIKNTRIDSISSLTKTEMVNKNVLARLLSDFPVHDLIFWRDVKKTGFVFGTTLIMLLSLAAFSVISVVSYLILALLSVTISFRVYKSVIQAVQKSEEGHPFKAYLDVDITLSSEAFHNYMNAAMVHVNKALKLIIRLFLVEDLVDSLKLAVFMWLMTYVGAVFNGITLLILAELLVFSVPIVYEKYKTQIDHYVGIARDQTKSIVEKIQAKLPGIAKKKAE
On to B2, for which the binding entry is given as “binds”.

B3: Ifitm2 (protein, UniProt Q99J93 1-144)
chain: MSHNSQAFLSTNAGLPPSYETIKEEYGVTELGEPSNSAVVRTTVINMPREVSVPDHVVWSLFNTLFFNACCLGFVAYAYSVKSRDRKMVGDVVGAQAYASTAKCLNISSLIFSILMVIICIIIFSTTSVVVFQSFAQRTPHSGF
As to B3, the binding entry is given as “binds”.

B4: PRA1 family protein 3 (Arl6ip5, Praf3) (protein, UniProt Q8R5J9 1-188)
chain: MDVNLAPLRAWDDFFPGSDRFARPDFRDISKWNNRVVSNLLYYQTNYLVVAAMMISVVGFLSPFNMILGGVIVVLVFMGFVWAAHNKDILRRMKKQYPTAFVMVVMLASYFLISMFGGVMVFVFGITLPLLLMFIHASLRLRNLKNKLENKMEGIGLKKTPMGIILDALEQQEDNINKFADYISKARE
On to B4, for which the binding result was “binds”.
